Measurements as given in the supplement of paper PMC8426693.
The other results are listed elsewhere or left out.

Experiments:
Experiment in all cases: NMR binding call after quantification (hit when 2 of 3 NMR criteria are met) (binary (1 = binding, 0 = not binding)); higher = binding
Conditions in all cases: RNA concentration 10 µM; fragment concentration 200 µM; 293 K
SARS-CoV-2 5_SL7 RNA = test system: SARS-CoV-2 5_SL7 RNA
SARS-CoV-2 5_SL8 RNA = test system: SARS-CoV-2 5_SL8 RNA
[1] = test system: SARS-CoV-2 attenuator hairpin (att HP) RNA
[2] = test system: SARS-CoV-2 frameshift pseudoknot (PK) RNA

Measured: NMR binding call

CCc1ccccc1NC(=O)c1snnc1C
0: all assays above

CNC(=O)c1ccc(S(N)(=O)=O)cc1
0: all assays above

Cc1cccc(CN2CCOCC2)c1
0: all assays above

CC(=O)NCC1(O)CCCC1
0: all assays above

CC(C)CNC(=O)c1ccc2ccccc2c1
0: all assays above

CC(c1ccccc1F)N1CCNCC1.Cl.Cl (configuration not stated)
0: all assays above

Not a retest: 2 of the compounds above.
Cc1cccc(CN2CCOCC2)c1
0: all assays above

CC(=O)NCC1(O)CCCC1
0: all assays above

Next structures:

CCNC(=O)c1c[nH]nn1
0: all assays above

O=C(CC1CCCCC1)Nc1cccnc1
0: all assays above

Cc1cc(CN(C)C(=O)NC2CC2)no1
0: all assays above

Cc1cccc(NC(=O)C2CCCN2)n1 (configuration not stated)
0: all assays above

NC(=O)C1CCC(F)(F)CC1
0: all assays above

N#CCC(=O)NC1CCCCC1
0: all assays above

CNC(=O)C1CCCc2sc(C)nc21 (configuration not stated)
0: all assays above

O=C(Nc1ccc(O)cc1)N1CCOCC1
0: all assays above

COc1cc(C(=O)O)cc(OC)c1OC
0: all assays above

Cc1cc(C(=O)NCc2cccs2)no1
0: all assays above

COCC(=O)Nc1c(C)cc(C)cc1C
0: all assays above

CC(=O)Nc1cc(C(=O)O)ccc1F
0: all assays above

CNC(=O)NCc1c(F)cccc1Cl
0: all assays above

Cc1c(Cl)cccc1NC(=O)CN.Cl
0: all assays above

CCOc1ccc(NC(=O)NC(C)(C)C)cc1
0: all assays above

O=C(NCc1ccccc1)c1cccc(F)c1
0: all assays above

N#Cc1cccc(NC(=O)CCC2CCCC2)c1
0: all assays above

COC(=O)N1CCN(c2ccc(F)cc2)CC1
0: all assays above

CNCc1ccc(C(F)(F)F)cc1
0: all assays above

CC(=O)N1CCN(CCCc2ccccc2)CC1
0: all assays above

Cc1nc(CN2CC(F)CC2CN)cs1 (configuration not stated)
0: all assays above

Cc1nc(C)n(CCC(=O)O)n1
0: all assays above

Cc1nsc(N2CCCNCC2)n1
0: all assays above

Oc1ncc(NCc2ccccc2)c(O)n1
0: all assays above

CC(=O)N1CCN(C(N)=O)CC1
0: all assays above

NNC(=O)c1ccc(OCc2ccccc2)cc1
0: all assays above

CC(CO)N(C)c1ncccc1F (configuration not stated)
0: all assays above
